From PMC7195445
These are yes or no findings as the source states them, for the method shown. In cells and extracts the contact can be indirect. Some binding calls cover weakened binding; strength is not graded here.

The chains behind the UniProt entries cited, without tags or fusion partners.
UniProt P20700: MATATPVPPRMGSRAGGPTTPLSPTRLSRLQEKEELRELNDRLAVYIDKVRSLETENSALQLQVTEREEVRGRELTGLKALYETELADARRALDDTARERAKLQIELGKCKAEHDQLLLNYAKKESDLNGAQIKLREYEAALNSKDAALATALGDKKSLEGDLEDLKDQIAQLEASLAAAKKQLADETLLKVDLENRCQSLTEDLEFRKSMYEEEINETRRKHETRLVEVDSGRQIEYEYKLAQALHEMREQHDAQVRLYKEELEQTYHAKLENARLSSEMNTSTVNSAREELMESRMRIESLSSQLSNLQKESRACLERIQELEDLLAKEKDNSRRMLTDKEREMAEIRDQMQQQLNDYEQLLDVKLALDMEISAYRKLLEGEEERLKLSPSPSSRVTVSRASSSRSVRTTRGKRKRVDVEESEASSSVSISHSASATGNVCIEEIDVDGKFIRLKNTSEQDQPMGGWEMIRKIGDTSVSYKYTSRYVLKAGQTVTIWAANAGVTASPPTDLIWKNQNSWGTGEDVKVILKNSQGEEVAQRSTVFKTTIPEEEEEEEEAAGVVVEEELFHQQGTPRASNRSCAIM

Biological target: T1, Emerin (human (endogenous in hTERT RPE-1)) (UniProt P50402)
T1 sequence: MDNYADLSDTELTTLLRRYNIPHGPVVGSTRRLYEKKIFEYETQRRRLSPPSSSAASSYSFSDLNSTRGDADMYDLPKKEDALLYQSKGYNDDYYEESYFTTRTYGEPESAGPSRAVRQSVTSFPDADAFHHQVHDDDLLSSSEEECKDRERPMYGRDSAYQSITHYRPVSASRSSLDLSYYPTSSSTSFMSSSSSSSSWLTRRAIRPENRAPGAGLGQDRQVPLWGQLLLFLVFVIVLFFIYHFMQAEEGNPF
Experiment: proximity ligation; Duolink PLA kit; hTERT RPE-1 cells on micro-patterned lines, fixed with 4% PFA, permeabilized with 0.1% Triton-X; pairs of mouse anti-emerin with rabbit anti-Lamin B1 or rabbit anti-nesprin-1 antibodies

In the case of lamin B1 (from UniProt P20700 1-586), the binding is reported as “binds”.
In the case of nesprin-1 (from UniProt Q8NF91 1-8797), the binding is reported as “binds”.
